The target of assay [1] is T1, ALADIN (endogenous) (human (endogenous in NCI-H295R)) (UniProt Q9NRG9).
T1 sequence: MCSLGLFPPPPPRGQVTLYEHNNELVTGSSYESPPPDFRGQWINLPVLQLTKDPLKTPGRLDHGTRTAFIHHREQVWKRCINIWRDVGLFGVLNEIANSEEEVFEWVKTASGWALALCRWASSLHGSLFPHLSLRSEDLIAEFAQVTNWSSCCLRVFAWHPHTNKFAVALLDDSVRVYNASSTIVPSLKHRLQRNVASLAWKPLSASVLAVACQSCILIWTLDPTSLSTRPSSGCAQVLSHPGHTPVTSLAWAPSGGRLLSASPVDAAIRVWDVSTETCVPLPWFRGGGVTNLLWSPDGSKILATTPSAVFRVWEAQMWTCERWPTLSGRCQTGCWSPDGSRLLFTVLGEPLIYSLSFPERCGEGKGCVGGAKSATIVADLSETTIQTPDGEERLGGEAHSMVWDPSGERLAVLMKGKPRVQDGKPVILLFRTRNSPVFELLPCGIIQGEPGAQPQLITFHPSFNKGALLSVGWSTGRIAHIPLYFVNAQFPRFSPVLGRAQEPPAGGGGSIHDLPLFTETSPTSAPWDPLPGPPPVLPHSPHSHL
The assay is described as follows: co-IP; endogenous ALADIN pulldown: anti-ALADIN (2 ug/ml) on Protein G UltraLink resin sepharose beads, NCI-H295R lysate (500 ug protein), normal mouse IgG as control; western blot. Background: A western blot detects proteins with antibodies after separation by electrophoresis.

In assay [2] the target is T2, GFP-ALADIN fusion protein (human) (UniProt Q9NRG9).
T2 sequence: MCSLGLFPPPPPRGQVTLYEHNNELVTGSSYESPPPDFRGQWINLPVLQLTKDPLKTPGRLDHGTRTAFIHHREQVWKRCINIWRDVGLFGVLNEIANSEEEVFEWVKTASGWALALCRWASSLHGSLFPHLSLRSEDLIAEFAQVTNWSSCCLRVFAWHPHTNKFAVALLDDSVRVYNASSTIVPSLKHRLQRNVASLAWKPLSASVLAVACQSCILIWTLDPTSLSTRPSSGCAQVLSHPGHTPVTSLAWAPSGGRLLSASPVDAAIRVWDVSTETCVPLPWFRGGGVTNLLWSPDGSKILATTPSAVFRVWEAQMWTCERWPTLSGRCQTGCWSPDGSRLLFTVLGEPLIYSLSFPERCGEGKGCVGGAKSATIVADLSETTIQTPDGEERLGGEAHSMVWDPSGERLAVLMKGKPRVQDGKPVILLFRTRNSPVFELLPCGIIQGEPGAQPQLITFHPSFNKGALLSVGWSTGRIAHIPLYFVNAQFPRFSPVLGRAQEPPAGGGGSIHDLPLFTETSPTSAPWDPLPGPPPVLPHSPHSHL
The assay is described as follows: co-IP; GFP-Trap_A agarose beads, whole cell lysates (500 ug protein) of NCI-H295R cells expressing GFP-ALADIN, PGRMC2-GFP or GFP (negative control); bound overnight at 4°C; western blot.

Assay [3] deals with T3, PGRMC2-GFP fusion protein (human) (UniProt O15173).
T3 sequence: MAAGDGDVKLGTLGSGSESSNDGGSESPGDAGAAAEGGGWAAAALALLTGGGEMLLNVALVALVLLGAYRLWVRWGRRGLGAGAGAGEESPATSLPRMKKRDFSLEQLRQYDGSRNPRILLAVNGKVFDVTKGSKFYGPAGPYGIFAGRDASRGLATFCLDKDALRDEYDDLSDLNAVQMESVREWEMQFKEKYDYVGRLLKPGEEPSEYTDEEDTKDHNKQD
Described as above.

Assay [4] addresses T4, progesterone receptor membrane component 2 (PGRMC2), endogenous (human (endogenous in NCI-H295R)) (UniProt O15173).
T4 sequence: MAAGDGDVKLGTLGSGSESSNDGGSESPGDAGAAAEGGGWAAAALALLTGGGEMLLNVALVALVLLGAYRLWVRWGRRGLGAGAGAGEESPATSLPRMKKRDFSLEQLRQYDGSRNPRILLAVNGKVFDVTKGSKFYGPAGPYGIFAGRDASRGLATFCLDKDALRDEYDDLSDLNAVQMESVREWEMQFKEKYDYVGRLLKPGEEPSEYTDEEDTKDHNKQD
Kind of assay: co-IP; endogenous PGRMC2 pulldown: anti-PGRMC2 (HPA041172, 2 ug/ml) on Protein G UltraLink resin sepharose beads, NCI-H295R lysate (500 ug protein), normal rabbit IgG as control; western blot.

No constants are given. Whether binding was seen depends on the method and setting. Binding seen in cells or lysates may run through a third protein. Some results given as binding are weak or reduced against the parent protein; the word gives no strength. For some assays here: Sequences can lack the tags named with a protein.

B1: progesterone receptor membrane component 2 (PGRMC2), endogenous (protein, UniProt O15173 1-223)
chain: MAAGDGDVKLGTLGSGSESSNDGGSESPGDAGAAAEGGGWAAAALALLTGGGEMLLNVALVALVLLGAYRLWVRWGRRGLGAGAGAGEESPATSLPRMKKRDFSLEQLRQYDGSRNPRILLAVNGKVFDVTKGSKFYGPAGPYGIFAGRDASRGLATFCLDKDALRDEYDDLSDLNAVQMESVREWEMQFKEKYDYVGRLLKPGEEPSEYTDEEDTKDHNKQD
In the case of B1, the binding result in assay [1], in assay [2] and in assay [3] was “binds” each time.

B2: ALADIN (endogenous) (protein, UniProt Q9NRG9 1-546)
chain: MCSLGLFPPPPPRGQVTLYEHNNELVTGSSYESPPPDFRGQWINLPVLQLTKDPLKTPGRLDHGTRTAFIHHREQVWKRCINIWRDVGLFGVLNEIANSEEEVFEWVKTASGWALALCRWASSLHGSLFPHLSLRSEDLIAEFAQVTNWSSCCLRVFAWHPHTNKFAVALLDDSVRVYNASSTIVPSLKHRLQRNVASLAWKPLSASVLAVACQSCILIWTLDPTSLSTRPSSGCAQVLSHPGHTPVTSLAWAPSGGRLLSASPVDAAIRVWDVSTETCVPLPWFRGGGVTNLLWSPDGSKILATTPSAVFRVWEAQMWTCERWPTLSGRCQTGCWSPDGSRLLFTVLGEPLIYSLSFPERCGEGKGCVGGAKSATIVADLSETTIQTPDGEERLGGEAHSMVWDPSGERLAVLMKGKPRVQDGKPVILLFRTRNSPVFELLPCGIIQGEPGAQPQLITFHPSFNKGALLSVGWSTGRIAHIPLYFVNAQFPRFSPVLGRAQEPPAGGGGSIHDLPLFTETSPTSAPWDPLPGPPPVLPHSPHSHL
As to B2, the binding result is on record as “binds” in assay [3] and “binds weakly” in assay [4].
